The assay has as its target T1, full-length MxA protein (human) (UniProt P20591).
T1 sequence (looked up): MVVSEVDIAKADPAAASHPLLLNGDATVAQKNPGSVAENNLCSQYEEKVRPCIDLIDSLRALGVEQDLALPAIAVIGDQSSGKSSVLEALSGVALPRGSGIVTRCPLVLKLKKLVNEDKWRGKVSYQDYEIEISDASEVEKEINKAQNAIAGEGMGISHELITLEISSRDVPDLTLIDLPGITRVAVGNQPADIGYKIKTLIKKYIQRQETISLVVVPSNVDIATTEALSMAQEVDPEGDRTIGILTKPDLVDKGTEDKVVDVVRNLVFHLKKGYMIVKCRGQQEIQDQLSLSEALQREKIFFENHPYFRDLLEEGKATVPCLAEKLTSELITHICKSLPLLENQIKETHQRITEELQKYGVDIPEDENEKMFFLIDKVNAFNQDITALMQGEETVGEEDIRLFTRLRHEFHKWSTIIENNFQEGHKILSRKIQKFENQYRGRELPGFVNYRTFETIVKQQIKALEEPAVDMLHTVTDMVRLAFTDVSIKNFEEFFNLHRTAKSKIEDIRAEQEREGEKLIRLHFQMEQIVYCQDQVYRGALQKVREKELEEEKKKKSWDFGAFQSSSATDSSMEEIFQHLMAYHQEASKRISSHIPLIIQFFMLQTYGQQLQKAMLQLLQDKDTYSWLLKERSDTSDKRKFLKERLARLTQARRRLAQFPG
Description: confocal microscopy co-localisation in 293T cells cotransfected with MxA and IE62.

Amino acid sequences for entries named in this document (tags omitted).
UniProt P09310: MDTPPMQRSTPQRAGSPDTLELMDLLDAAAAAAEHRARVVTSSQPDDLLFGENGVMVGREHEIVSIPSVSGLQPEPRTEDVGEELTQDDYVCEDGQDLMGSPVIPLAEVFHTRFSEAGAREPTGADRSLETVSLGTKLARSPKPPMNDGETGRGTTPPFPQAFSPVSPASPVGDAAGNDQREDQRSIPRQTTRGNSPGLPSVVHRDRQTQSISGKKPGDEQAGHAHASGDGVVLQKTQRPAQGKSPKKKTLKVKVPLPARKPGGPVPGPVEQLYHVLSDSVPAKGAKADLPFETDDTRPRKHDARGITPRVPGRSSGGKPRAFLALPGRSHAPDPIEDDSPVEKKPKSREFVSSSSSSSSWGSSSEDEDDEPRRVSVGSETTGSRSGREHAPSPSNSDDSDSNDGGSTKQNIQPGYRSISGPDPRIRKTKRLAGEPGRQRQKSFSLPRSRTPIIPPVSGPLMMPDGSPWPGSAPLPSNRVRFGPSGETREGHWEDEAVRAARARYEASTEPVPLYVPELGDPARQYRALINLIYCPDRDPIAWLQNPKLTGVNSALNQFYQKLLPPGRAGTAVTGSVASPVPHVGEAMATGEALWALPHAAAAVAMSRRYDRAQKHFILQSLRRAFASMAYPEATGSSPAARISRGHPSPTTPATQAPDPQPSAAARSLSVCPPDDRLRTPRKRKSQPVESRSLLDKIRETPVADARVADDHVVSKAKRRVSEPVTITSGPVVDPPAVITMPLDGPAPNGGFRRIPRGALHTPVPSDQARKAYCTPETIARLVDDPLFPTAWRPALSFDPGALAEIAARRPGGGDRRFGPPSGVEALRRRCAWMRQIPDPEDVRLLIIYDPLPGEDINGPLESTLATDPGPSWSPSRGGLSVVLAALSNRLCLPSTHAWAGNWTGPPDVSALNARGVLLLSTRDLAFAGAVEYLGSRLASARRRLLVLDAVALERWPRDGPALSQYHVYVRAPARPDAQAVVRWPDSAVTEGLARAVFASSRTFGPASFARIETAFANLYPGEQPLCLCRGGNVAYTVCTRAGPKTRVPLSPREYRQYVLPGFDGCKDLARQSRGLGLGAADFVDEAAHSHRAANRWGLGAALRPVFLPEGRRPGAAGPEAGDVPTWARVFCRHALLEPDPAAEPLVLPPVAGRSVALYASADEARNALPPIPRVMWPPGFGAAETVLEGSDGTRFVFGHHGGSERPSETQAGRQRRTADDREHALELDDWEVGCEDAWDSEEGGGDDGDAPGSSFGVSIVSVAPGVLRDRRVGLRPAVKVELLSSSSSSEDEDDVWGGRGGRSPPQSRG

Results are given in words; binding and its absence hold for the method and conditions named. Some entries that bind do so weakly or less than the wild type.

As to “VZV encoded protein IE62 (from UniProt P09310 1-1310)”, the binding entry is “binds”.

For the origin of these results see patent US20070218466A1.
